# PubChem BioAssay AID743448, Peter MacCallum Cancer Centre | 2014
# Purpose: 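Third-round triage of 106 confirmed candidates in four colon lines under two drugs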 (follow-up of hits)
# Cells: four human colon cancer cell lines: HCT116-VR (vorinostat-resistant HCT116 derivative), SW480, SW620 and LIM1215
# Reagents: siRNA pool against human genes, 40 nM siRNA pool
# Duration: drug added two days after transfection, read one day later
# Challenge: vorinostat 2.5 µM on one half of each plate, etoposide 5 µM on the other half
# Cell line and drug panel: vorinostat-resistant HCT116 cells with vorinostat
# Measured: 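Caspase luminescence and viability fluorescence, each expressed relative to mock transfection and also as robust z-scores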
# Reading the numbers: caspase ratio to mock: higher = more caspase activity than mock; viability ratio to mock: higher = more live cells than mock; caspase robust z-score: higher = more caspase activity, more apoptosis; viability robust z-score: higher = more live cells
# Hit rule: 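Hit means caspase ratio to mock at least 1.6, or viability ratio to mock at most 0.75; wells with strong death in the absence of drug get no call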
# Calls: active = caspase or viability hit in this panel; inactive = no change, or unhealthy well
# Shown is an unselected part of the 106 reagents, under one of the conditions tested. 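Calls are per line and drug panel including etoposide, not vorinostat-specific; gene picks needed hits in two or more extra lines with vorinostat versus etoposide.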
target,caspase ratio to mock,viability ratio to mock,caspase robust z-score,viability robust z-score,call
POLR2J,2.62,0.85,0.54,-0.39,active
EIF3I,0.88,0.64,-1.53,-1.71,active
DPPA5,1.94,1.02,-0.28,0.64,active
GPER1,2.37,0.92,0.3,0.03,active
LBHD1,1.6,0.91,-0.65,-0.04,active
MICALL2,2.94,1.15,0.97,1.48,active
OR2W5,1.88,0.92,-0.33,0.06,active
FANCA,2.55,0.97,0.54,0.34,active
DDX18,1.48,0.73,-0.79,-1.17,active
THOC5,3.22,0.88,1.34,-0.22,active
PLAG1,1.62,0.99,-0.64,0.44,active
MTF2,2.48,0.68,0.49,-1.46,active
CCNK,2.38,1,0.34,0.44,active
LCE2A,2.77,1.12,0.7,1.25,active
NUP62,2.58,0.73,0.52,-1.14,active
EIF2B2,1.52,0.84,-0.74,-0.48,inactive
VAX1,2.04,0.99,-0.15,0.48,active
NPEPPS,0.77,0.48,-1.62,-2.73,active
MED26,3.96,0.94,2.08,0.18,active
SCRT2,2.02,1,-0.14,0.54,active
IQSEC1,1.88,0.91,-0.32,-0.01,active
TBC1D20,2.34,0.93,0.22,0.07,active
IRX2-DT,2.11,1.21,-0.04,1.9,active
FLII,2.86,1.08,0.82,1.02,active
AQR,4.21,0.58,2.49,-2.09,active
HPCAL1,1.43,0.88,-0.84,-0.18,inactive
PSMD4,3.5,0.94,1.75,0.05,active
CSE1L,3.77,0.93,1.89,0.12,active
RLN3,1.44,1.01,-0.84,0.58,inactive
DDX19B,3.62,0.71,1.79,-1.27,active
TOX4,1.62,1.03,-0.63,0.69,active
SAP130,2.79,0.9,0.8,-0.08,active
SH3GLB2,1.17,0.94,-1.21,0.16,inactive
PUF60,4.86,0.81,3.36,-0.64,active
AMDHD2,2.59,0.96,0.52,0.31,active
NPC1L1,1.2,0.97,-1.12,0.32,inactive
RERE,2.24,1.03,0.09,0.72,active
THAP1,1.39,0.95,-0.91,0.21,inactive
CNOT3,3.51,1.04,1.64,0.74,active
NUP54,2.58,0.82,0.57,-0.62,active
PRRT3,1.73,1.07,-0.48,1,active
H1-5,2.3,0.86,0.2,-0.32,active
LRP3,2.25,0.98,0.06,0.39,active
MSANTD1,2.88,0.78,0.9,-0.88,active
AKAP8,2.58,1.05,0.56,0.83,active
NUP58,2.23,0.85,0.18,-0.42,active
PSMD13,2.55,0.74,0.45,-1.06,active
C1orf210,2.93,0.85,0.96,-0.45,active
POLR2D,4.05,0.8,2.36,-0.78,active
EIF3L,1.85,1.16,-0.38,1.54,active

Only “caspase robust z-score”, for 2 of the entries above:
OR2W5 = -0.33
FANCA = 0.54
